From patent US20220073613A1, “ACTIVATABLE MASKED ANTI-CTLA4 BINDING PROTEINS” (Xilio Development, Inc., priority 2018, published 2022) come the findings set out here.

One data set concerns MC38 conditioned media. The data set can be described thus: AMSP-MS kinetic analysis of AK10 peptides, MC38. Type of data set: biochemical, mouse. How it is done:
(§1) Ten sequences (AK10) shown in Table 19 were analyzed via AMSP-MS. These sequences were slightly modified from the original sequences to generate mass spectrometry-compatible peptides (in some cases adding basic residues to add positive charge) and spacing residues (GG) to produce longer ˜14-mer peptides. The peptides were prepared at a 500 nM final concentration in the AMSP-MS reaction. The AK10 library was also separately analyzed by LC-MS/MS for chemical validation of the peptide species. The AMSP-MS analysis was performed under standard substrate specificity profiling conditions, sampling time points during the reaction incubation at 0, 15, 60, 240 and 1200 min. Peptides were quantified by mass spectrometric label-free quantitation from the MS1 precursor ion peak areas for each peptide species. Enzyme progress curves were modeled in GraphPad Prism software v 8.0 and data were fitted using non-linear least squares fitting to the first order kinetic equation: where Y=percent product formation, Kobs is the observed rate, and t=time. In Michaelis-Menten kinetics, the observed rate Kobs is a function of the enzyme concentration and catalytic efficiency (kcat/KM). In this analysis of an enzyme mixture, Kobs was used to rank product cleavages.

Another data set has as its system H2228 conditioned media. Description: AMSP-MS kinetic analysis of AK10 peptides, H2228. Type of data set: biochemical, human.
Another data set concerns NAT conditioned media. Description: AMSP-MS kinetic analysis of AK10 peptides, NAT. Type of data set: biochemical, human. As for the experimental part:
as §1

The subject of another data set is tumor conditioned media. The data set can be described thus: AMSP-MS kinetic analysis of AK10 peptides, patient tumor. Type of data set: biochemical, human. How it is done: as §1

With GSGRAAAVKSPGSK [AK-07], the “Cleaved by conditioned media samples?” value in the data set on MC38 conditioned media, in the data set with H2228 conditioned media, in the data set with NAT conditioned media and in the data set with tumor conditioned media was “No” each time.

As for LSGRSNAMPYDLYHP [AK-09], the “Cleaved by conditioned media samples?” value in the data set with MC38 conditioned media, in the data set with H2228 conditioned media, in the data set on NAT conditioned media and with tumor conditioned media was “Yes” each time.

As to MPYDLYHPRQARVVG [AK-10], the “Cleaved by conditioned media samples?” value with MC38 conditioned media, with H2228 conditioned media, in the data set with NAT conditioned media and with tumor conditioned media was “Yes” throughout.

Turning to RGGDSGGFMLTGGK [AK-05], the “Cleaved by conditioned media samples?” value was “No” with MC38 conditioned media, “No” with H2228 conditioned media, “No” in the data set on NAT conditioned media and “Yes” in the data set on tumor conditioned media.

As to RGGMPYDLYHPGGK [AK-04], the “Cleaved by conditioned media samples?” value is on record as “No” in the data set on MC38 conditioned media, “Yes” with H2228 conditioned media, “Yes” with NAT conditioned media and “Yes” in the data set on tumor conditioned media.

For RGGVPLSLYSGGGK [AK-03], the “Cleaved by conditioned media samples?” value is “No” in the data set with MC38 conditioned media, “No” in the data set with H2228 conditioned media, “No” with NAT conditioned media and “Yes” in the data set on tumor conditioned media.

Consider RGSGHEQLTVGGSK [AK-06], for which the “Cleaved by conditioned media samples?” value in the data set on MC38 conditioned media, in the data set with H2228 conditioned media, in the data set on NAT conditioned media and in the data set on tumor conditioned media was “No” each time.
